# Reference: ChEMBL document CHEMBL1143970, “Structure-activity relationships and CoMFA of N-3 substituted phenoxypropyl piperidine benzimidazol-2-one analogues as NOP receptor agonists with analgesic properties” (Bioorg Med Chem, 2008)
# Sequences of proteins named here, by UniProt entry; tags and fusion partners are left off.
# UniProt P41146, whole entry: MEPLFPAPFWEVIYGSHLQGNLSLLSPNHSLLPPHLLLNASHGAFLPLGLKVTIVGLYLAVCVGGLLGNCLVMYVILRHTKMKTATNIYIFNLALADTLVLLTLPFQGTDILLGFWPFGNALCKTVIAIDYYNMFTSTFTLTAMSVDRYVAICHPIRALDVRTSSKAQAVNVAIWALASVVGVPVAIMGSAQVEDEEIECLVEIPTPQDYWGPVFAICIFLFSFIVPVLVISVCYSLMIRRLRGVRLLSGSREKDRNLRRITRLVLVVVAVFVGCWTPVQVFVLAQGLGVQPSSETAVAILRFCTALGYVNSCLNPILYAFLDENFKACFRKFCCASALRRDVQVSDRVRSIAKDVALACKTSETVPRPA
# For part of its entries the source gives two or more results. Only these are listed. An entry can have further records. Values that stand side by side differ, and nothing given here explains why; they may come from other doses, times, organisms or constructs than stated.
# Biological target: Nociceptin receptor (Homo sapiens, UniProt P41146)
# Assay: Displacement of [3H]nociceptin from human NOP receptor expressed in CHO cells
compound,measurement,value
COc1ccc(C)c(OC(CCN2CCC(n3c(=O)n(Cc4ncn[nH]4)c4ccccc43)CC2)C(C)C)c1 (stereo unspecified),Log Ki,-9.05 and -8.76
